{
  "sequences": {"note": "Chains of the proteins cited; added tags and fusions are not shown.", "UniProt Q16665": "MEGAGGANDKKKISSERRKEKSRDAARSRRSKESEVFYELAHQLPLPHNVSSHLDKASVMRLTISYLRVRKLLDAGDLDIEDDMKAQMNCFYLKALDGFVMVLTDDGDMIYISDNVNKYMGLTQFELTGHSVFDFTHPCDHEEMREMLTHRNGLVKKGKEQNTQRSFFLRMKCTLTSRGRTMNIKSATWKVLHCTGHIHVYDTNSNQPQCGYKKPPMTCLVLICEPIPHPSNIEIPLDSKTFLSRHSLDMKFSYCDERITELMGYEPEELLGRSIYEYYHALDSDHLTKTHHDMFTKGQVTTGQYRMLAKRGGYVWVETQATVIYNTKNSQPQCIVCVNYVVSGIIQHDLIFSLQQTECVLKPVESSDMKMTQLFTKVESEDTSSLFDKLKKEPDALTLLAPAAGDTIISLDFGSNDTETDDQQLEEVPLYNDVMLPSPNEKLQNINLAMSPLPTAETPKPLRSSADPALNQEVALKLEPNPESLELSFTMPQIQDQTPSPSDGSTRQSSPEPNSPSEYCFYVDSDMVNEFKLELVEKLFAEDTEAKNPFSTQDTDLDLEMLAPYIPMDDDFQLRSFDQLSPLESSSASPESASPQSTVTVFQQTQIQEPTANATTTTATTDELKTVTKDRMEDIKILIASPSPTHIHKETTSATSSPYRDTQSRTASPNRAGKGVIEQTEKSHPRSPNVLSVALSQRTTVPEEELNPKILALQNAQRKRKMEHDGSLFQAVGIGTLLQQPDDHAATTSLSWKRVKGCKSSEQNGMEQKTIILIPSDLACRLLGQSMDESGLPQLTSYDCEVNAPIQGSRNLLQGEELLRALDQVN", "UniProt Q92793": "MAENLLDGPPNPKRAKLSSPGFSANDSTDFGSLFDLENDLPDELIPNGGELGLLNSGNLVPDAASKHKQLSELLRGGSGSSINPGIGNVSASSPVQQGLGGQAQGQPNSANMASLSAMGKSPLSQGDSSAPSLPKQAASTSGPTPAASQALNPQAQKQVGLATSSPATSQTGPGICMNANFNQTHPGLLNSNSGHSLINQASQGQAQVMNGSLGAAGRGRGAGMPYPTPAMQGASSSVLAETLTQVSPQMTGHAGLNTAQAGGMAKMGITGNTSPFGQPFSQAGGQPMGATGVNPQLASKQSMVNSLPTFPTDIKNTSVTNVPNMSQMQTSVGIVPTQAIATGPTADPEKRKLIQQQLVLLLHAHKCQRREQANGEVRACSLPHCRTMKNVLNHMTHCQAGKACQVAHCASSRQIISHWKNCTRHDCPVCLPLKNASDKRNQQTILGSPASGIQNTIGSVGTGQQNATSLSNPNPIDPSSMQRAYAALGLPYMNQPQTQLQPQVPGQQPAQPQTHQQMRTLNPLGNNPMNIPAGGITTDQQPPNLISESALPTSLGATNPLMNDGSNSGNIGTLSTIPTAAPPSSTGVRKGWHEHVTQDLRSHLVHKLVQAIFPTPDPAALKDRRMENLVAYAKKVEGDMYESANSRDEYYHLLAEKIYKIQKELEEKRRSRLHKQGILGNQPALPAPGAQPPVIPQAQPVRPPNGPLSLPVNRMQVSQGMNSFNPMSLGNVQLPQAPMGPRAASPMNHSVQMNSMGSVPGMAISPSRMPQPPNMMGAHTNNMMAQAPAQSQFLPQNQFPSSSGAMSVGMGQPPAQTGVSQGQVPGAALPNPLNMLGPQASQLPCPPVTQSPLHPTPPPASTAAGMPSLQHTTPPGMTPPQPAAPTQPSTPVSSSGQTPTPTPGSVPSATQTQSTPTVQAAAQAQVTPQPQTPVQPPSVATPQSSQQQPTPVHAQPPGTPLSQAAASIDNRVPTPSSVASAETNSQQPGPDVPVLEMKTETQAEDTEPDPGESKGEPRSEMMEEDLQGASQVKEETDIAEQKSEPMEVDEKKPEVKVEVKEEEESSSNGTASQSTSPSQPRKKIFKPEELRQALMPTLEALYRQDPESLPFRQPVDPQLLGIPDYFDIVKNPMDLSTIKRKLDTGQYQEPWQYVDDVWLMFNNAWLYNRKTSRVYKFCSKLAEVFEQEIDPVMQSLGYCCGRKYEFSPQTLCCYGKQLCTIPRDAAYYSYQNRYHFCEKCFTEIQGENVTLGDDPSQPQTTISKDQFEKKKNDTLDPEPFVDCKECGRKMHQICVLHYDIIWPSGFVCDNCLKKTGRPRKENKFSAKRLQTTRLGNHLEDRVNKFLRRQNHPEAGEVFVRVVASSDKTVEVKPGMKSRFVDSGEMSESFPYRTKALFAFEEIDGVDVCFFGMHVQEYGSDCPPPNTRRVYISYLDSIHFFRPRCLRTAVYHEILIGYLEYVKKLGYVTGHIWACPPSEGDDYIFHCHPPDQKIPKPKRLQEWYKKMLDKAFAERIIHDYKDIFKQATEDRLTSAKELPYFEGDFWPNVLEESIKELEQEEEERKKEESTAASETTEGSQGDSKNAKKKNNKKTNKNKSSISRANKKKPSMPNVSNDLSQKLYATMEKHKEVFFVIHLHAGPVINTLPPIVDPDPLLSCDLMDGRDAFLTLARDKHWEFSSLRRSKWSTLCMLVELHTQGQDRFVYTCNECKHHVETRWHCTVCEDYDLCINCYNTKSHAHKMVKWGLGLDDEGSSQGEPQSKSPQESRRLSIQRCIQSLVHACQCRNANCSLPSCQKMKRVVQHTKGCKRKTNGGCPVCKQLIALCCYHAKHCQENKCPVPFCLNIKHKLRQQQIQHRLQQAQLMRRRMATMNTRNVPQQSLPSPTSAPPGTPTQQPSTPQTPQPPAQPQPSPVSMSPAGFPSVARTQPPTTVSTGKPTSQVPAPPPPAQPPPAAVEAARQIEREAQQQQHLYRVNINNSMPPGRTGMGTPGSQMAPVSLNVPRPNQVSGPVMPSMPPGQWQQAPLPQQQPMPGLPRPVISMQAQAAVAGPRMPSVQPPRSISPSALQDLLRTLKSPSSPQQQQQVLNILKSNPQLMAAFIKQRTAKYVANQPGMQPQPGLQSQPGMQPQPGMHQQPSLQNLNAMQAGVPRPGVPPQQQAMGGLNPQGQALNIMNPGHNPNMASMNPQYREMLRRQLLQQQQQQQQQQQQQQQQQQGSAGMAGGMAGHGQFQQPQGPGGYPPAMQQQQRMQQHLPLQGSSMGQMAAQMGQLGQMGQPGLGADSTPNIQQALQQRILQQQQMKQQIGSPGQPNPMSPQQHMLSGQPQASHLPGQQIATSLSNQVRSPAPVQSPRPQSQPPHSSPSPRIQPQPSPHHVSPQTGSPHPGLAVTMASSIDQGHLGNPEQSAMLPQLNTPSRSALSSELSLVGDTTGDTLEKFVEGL"},
  "source": "paper PMC7775506",
  "molecular_target": "HIF-1α (human (endogenous in HUVEC; species of the fibroblasts not stated)) (UniProt Q16665)",
  "experiment": "co-IP; lysates of HUVECs and fibroblasts of the Ctrl, MGO (800 μM MGO) and INS (800 μM MGO and 10^-6 M insulin) groups; which protein was precipitated is not told; no co-IP method is described",
  "note": "No constants are given. Whether binding was seen depends on the method and setting. In cells and extracts the contact can be indirect. Some results given as binding are weak or reduced against the parent protein; the word gives no strength.",
  "data": [
    {"substance": "CBP (from UniProt Q92793 1-2442)", "values": [
      {"measurement": "binding", "value": "binds"}
    ]}
  ]
}
